The values below come from PubChem BioAssay AID2685 (National Center for Advancing Translational Sciences (NCATS), 2010).

The nature of this test: qHTS Assay for Lipid Storage Modulators in Drosophila S3 Cells.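 For cell number change: cells counted by Cell Tracker Red CMTPX staining in the red channel.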 Particulars: BODIPY lipid droplet fluorescence, 18-24 h; for cell number change: measured here: cell count max response, cells fed with added oleic acid. In outline:
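Drosophila S3 cells got compounds at several concentrations plus oleic acid (400 uM solution). Laser-scanning cytometry with 488 nm excitation read lipid droplets at 500-530 nm and cells at 575-640 nm. Percent activity was relative to 20 uM Triacsin C.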

[1] abbreviates: measured here: lipid fluorescence (Fed channel) AC50, cells fed with added oleic acid.
The mark [2] stands for this setting: measured here: cell number channel AC50, cells fed with added oleic acid.

Some of the results follow. The main result of the screen is listed elsewhere. These columns were measured beside it and carry no call. Most of these compounds were active or inconclusive in the main read-out, so they are no random draw. Words in brackets tell the shape of the fitted curve; partial curves, single points and poor fits give uncertain potencies.

Usually AC50 stands for the concentration at which the activity in the assay is half-maximal.

For `CCN1CCN(C(=O)c2nn(-c3ccccc3)c(=O)c3ccccc23)CC1`, the cell number change is -15.3%. Besides, the AC50 under setting [1] is 5.17 µM [falling, partial curve].

Take `Nn1c(Cc2ccccc2F)nnc1SCCOc1ccc(Cl)cc1`: the cell number change was -12.7%. The AC50 under setting [2] was 0.731 µM [rising, single point].

Regarding `CN(C)CCOC(c1ccc(Cl)cc1)c1ccccn1` (stereo not drawn), the cell number change is 0.528%. Moreover, under setting [2], the half-maximal activity concentration (AC50) was 6.51 µM [rising, single point].

For `O=C(CSc1nc(=O)n2ccccc2n1)N1CCCc2ccccc21`, the cell number change is -32.6%. In addition, under setting [2], the AC50 was 32.6 µM [falling, single point]. For the same molecule, the AC50 under setting [1] is 4.61 µM [falling, partial curve].

As to `O=C(CP(=O)(CO)CO)c1ccc(Cl)cc1`, under setting [2], the half-maximal activity concentration (AC50) was 4.11 µM [falling, single point].

Regarding `COc1cccc(/C=C(\C#N)c2nc3ccccc3[nH]2)c1OCC(=O)O`, the cell number change was 34.1%. Further, under setting [2], the concentration at half-maximal activity (AC50) was 29.1 µM [rising, single point].

Regarding `CC1(C)COC(c2ccc(F)c([N+](=O)[O-])c2)=N1`, the cell number change was -13.5%.

Turning to `CC(C)OC(=O)/C(C#N)=C/c1cn(Cc2ccccc2)c2ccccc12`, the cell number change was -3.16%. Moreover, the AC50 under setting [1] is 29.1 µM [falling, single point].

With `O=C(CSc1nnc(Cc2ccccc2)o1)c1cc(F)ccc1F`, the cell number change worked out at 35.3%. Under setting [1], the AC50 is 25.9 µM [rising, single point].

Turning to `CC1CCCCN1C(=O)Cn1c(=O)oc2cc(S(=O)(=O)N3CCCC3)ccc21` (stereo not drawn), the cell number change was -9.88%. For the same molecule, the concentration at half-maximal activity (AC50) under setting [1] was 1.03 µM [rising, full curve].

With `CCC(=O)c1ccc(OCC(=O)OCC(=O)N2CCN(c3ccc(OC)cc3)CC2)cc1`, the cell number change was determined as 6.33%. Besides, the AC50 under setting [2] is 0.00517 µM [falling, full curve, poor fit]. In addition, the AC50 under setting [1] was 5.17 µM [falling, full curve].

Consider `O=C(NC(=O)c1ccccc1)NC(=O)c1ccccc1`, for which the cell number change amounted to 39.8%. For the same molecule, the AC50 under setting [2] is 16.4 µM [rising, single point].

`COc1cccc(CNC(=O)CNC(=O)c2cccs2)c1`: the cell number change was 2.67%.

Consider `CCCCOc1ccc(-c2nc(SCC(N)=O)n[nH]2)cc1`, for which the cell number change is -1.39%.

As for `COc1ccc(NC(=O)Nc2nnc(N3CCCCC3C)s2)cc1OC` (stereo not drawn), the half-maximal activity concentration (AC50) under setting [1] was 20.6 µM [rising, single point].

In the case of `COc1ccc(C(=O)Nc2cccc3ccccc23)cc1`, the cell number change is 2.11%.

As to `COc1cc(Nc2cc(C)nc3nc(C)nn23)cc(OC)c1OC`, the cell number change was -24.4%. Moreover, the AC50 under setting [1] was 29.1 µM [falling, single point].

For `COc1ccc(C(=O)Nc2ccc(C(=O)OCC(=O)c3cccc4ccccc34)cc2)cc1`, the cell number change was -21.4%. The AC50 under setting [1] was 4.11 µM [falling, full curve, poor fit].

`CCc1ccc(OCC(O)CN2CCN(c3ccccc3)CC2)cc1` (stereo not drawn): the cell number change is 0.993%. Moreover, under setting [1], the concentration at half-maximal activity (AC50) was 9.2 µM [falling, single point].

Take `CCCCCn1c(CN2CCN(Cc3ccccc3)CC2)nc2c1c(=O)n(C)c(=O)n2C`: the cell number change was -21.4%. Moreover, the AC50 under setting [1] was 18.4 µM [falling, partial curve].

For `CC(=O)OCc1c(-c2ccccc2)c2cc([N+](=O)[O-])ccc2n1C`, the cell number change is -1.39%. Under setting [1], the AC50 is 6.51 µM [rising, partial curve].

Take `COc1ccc(S(=O)(=O)NCCCN2CCCC2=O)cc1OC`: the cell number change is -33.9%. Besides, the AC50 under setting [2] was 25.9 µM [falling, single point].

`CC(C)c1nc(C#N)c(NCCCn2ccnc2)o1`: the cell number change is -3.09%. The AC50 under setting [1] was 4.11 µM [rising, full curve].

For the molecule `CN1CCN(S(=O)(=O)c2ccc3c(c2)oc(=O)n3C)CC1`, the cell number change was 19.5%.

On to `CC1(c2ccccc2Br)NC(=O)N(CC(=O)NC2CCCCC2)C1=O` (stereo not drawn), for which the cell number change was -10.5%. The half-maximal activity concentration (AC50) under setting [1] was 2.31 µM [rising, single point].

With `O=C(/C=C/c1ccccc1)Nc1cc(S(=O)(=O)N2CCOCC2)ccc1N1CCCC1`, the cell number change was -33.1%. Also, under setting [2], the AC50 was 5.8 µM [falling, partial curve, poor fit]. Moreover, under setting [1], the AC50 was 0.00651 µM [falling, full curve].

As for `Cc1cccc(NC(=S)Nc2ccc(Br)cc2)c1`, the cell number change was -19.3%.

Take `Cc1nc(SCC(=O)NC2CCCCC2C)c(C#N)c(C)c1C` (stereo not drawn): the cell number change turned out to be 31.7%. In addition, the AC50 under setting [2] is 23.1 µM [rising, single point]. Besides, under setting [1], the AC50 is 29.1 µM [rising, single point].

On to `COc1cc(C2C(C#N)=C(N)N(Nc3ccccc3)C3=C2C(=O)CC(C)(C)C3)ccc1OCc1cccc(F)c1` (stereo not drawn), for which the cell number change is -6.51%.

Regarding `COc1ccc2oc(=O)c(-c3csc(Nc4cccc(O)c4)n3)cc2c1`, the cell number change worked out at 8.29%. In addition, under setting [1], the AC50 is 23.1 µM [rising, single point].

Turning to `COc1ccc(-c2csc(NC(=O)c3ccc(N4C(=O)CCC4=O)cc3)n2)cc1OC`, the cell number change was determined as 41.9%. The AC50 under setting [2] was 16.4 µM [rising, single point].

With `Cc1ccc(C2c3c(oc4cc(C)c(C)cc4c3=O)C(=O)N2CCCN2CCOCC2)cc1` (stereo not drawn), the cell number change was determined as 91.6%. Under setting [2], the AC50 was 10.3 µM [rising, partial curve]. Moreover, the AC50 under setting [1] was 6.51 µM [rising, single point].

For the molecule `C=CCN1C(=O)c2ccc(C(=O)N(C)CC(=O)Nc3ccccc3Br)cc2C1=O`, the cell number change is -27.8%. Also, under setting [1], the AC50 was 18.4 µM [falling, single point].

Consider `CN(Cc1ccccc1F)C(=O)CN1C(=O)NC2(CCc3ccccc32)C1=O` (stereo not drawn), for which the AC50 under setting [1] is 0.00461 µM [rising, full curve, poor fit].

As for `CCOC(=O)CC1=CC(C)(CC(=O)OCC)C(C#N)(C#N)C(N)=C1C#N` (stereo not drawn), the cell number change was 89.2%. For the same molecule, the AC50 under setting [2] is 6.51 µM [rising, partial curve].

For the molecule `CCOc1ccccc1N1CCN(C(=O)c2c(Cl)cnn2C)CC1`, the cell number change is -31.7%. Moreover, the AC50 under setting [2] is 6.51 µM [falling, partial curve].

As for `O=C(NCc1ccccc1)C(c1ccccc1)N(C(=O)c1csnn1)c1ccc(F)cc1` (stereo not drawn), the cell number change is -4.76%.

`Cc1nn(C)cc1/C=N/n1nnnc1N`: the cell number change is 6.26%. Besides, the AC50 under setting [1] is 0.164 µM [falling, full curve, poor fit].

With `CCCN1C(=O)c2ccc(C(=O)Nc3nccs3)cc2C1=O`, the cell number change was found to be 72.8%. In addition, the AC50 under setting [2] was 20.6 µM [rising, single point]. The AC50 under setting [1] is 0.651 µM [falling, single point].

Turning to `CC1(C)Cc2cccc(OCC(=O)OCC(=O)c3ccccc3)c2O1`, the cell number change is 18.8%. The AC50 under setting [1] was 29.1 µM [rising, single point].

Turning to `CCN(Cc1ccccc1)S(=O)(=O)c1cc2c3c(c1)CCN3C(=O)CC2`, the cell number change is 14.5%.

For `O=C(CCc1nc2ccccc2[nH]1)N1CCc2ccccc2C1`, the cell number change turned out to be 1.99%. For the same molecule, the AC50 under setting [1] was 0.116 µM [falling, full curve, poor fit].

For `Cc1ccc(C)c(-c2nnc(NC(=O)C3=COCCO3)o2)c1`, the cell number change was found to be 39.2%. Moreover, the AC50 under setting [2] was 16.4 µM [rising, single point]. The AC50 under setting [1] was 16.4 µM [rising, partial curve].

For the molecule `CC/C=C/C(=O)N1CC2(CC(c3cccc(NC(=O)c4ccccc4)c3)=NO2)C[C@@H]1C(N)=O` (stereo partly drawn), the cell number change is -4.31%. For the same molecule, the half-maximal activity concentration (AC50) under setting [1] is 0.13 µM [rising, full curve, poor fit].

Take `CNc1nc(-c2ccc3c(c2)CCN3C(=O)CC(C)(C)C)c(C)s1`: the cell number change is -21.1%. Moreover, the AC50 under setting [1] is 16.4 µM [falling, partial curve].

Turning to `COCCN1CN(S(=O)(=O)c2ccccc2)c2nc3ccccc3nc21`, the AC50 is, setting by setting: under setting [2], 0.651 µM [rising, full curve]; under setting [1], 0.731 µM [rising, full curve].

`c1ccc(-n2cnnc2SCc2nc3ccccc3s2)cc1`: the AC50 under setting [2] was 0.517 µM [rising, single point].

`NC(=O)C1CCCN(S(=O)(=O)c2ccc(Br)cc2)C1` (stereo not drawn): the cell number change is -0.734%. Further, the AC50 under setting [1] was 29.1 µM [rising, single point].

For the molecule `CSc1cc(N2CCOCC2)nc(-c2ccccc2Cl)n1`, the AC50 reads like this: under setting [2], 2.06 µM [falling, partial curve, poor fit]; under setting [1], 2.91 µM [rising, single point].

Take `CC1(C)CC(Nc2ccc(C(F)(F)F)cc2[N+](=O)[O-])CC(C)(C)N1`: the cell number change was -40.6%. The AC50 under setting [2] is 29.1 µM [falling, single point].

Turning to `O=c1c2c3c(sc2n2cnnc2n1Cc1ccccc1)CN(Cc1ccccc1)CC3`, the AC50 under setting [2] was 0.326 µM [rising, full curve].

On to `Nc1c(C(=O)NCc2ccc(F)cc2)c2nc3ccccc3nc2n1CCCN1CCOCC1`, for which the cell number change is -183%.

As for `Cc1occc1-c1nnc(SCC(=O)NC2CCCC2)n1C`, the cell number change came out at 21.8%. Moreover, the AC50 under setting [2] was 0.731 µM [rising, full curve, poor fit]. The AC50 under setting [1] was 29.1 µM [rising, single point].

Regarding `Cc1ccc(S(=O)(=O)Nc2nc3ccccc3s2)cc1`, the cell number change is -83.6%. For the same molecule, the AC50 under setting [2] is 23.1 µM [falling, partial curve]. Also, the AC50 under setting [1] was 1.64 µM [falling, partial curve, poor fit].

Turning to `CC(C)(C)c1ccc(C(=O)N2CCN(C(=O)c3ccco3)CC2)cc1`, the cell number change was -9.05%.

As for `Cc1ccccc1NC(=O)Cc1nc(COC(=O)c2ccc(C(F)(F)F)cc2)cs1`, the cell number change is -2.27%. Besides, the AC50 under setting [1] was 3.26 µM [rising, single point].

Take `O=C(CSc1nnc(-c2cccnc2)n1Cc1ccco1)NCc1ccc2c(c1)OCO2`: the cell number change was 94.2%. Under setting [2], the AC50 was 29.1 µM [rising, single point].

Consider `C/C(=N\Nc1nc(C(C)(C)C)cs1)c1ccccc1`, for which the cell number change is -8.84%. Further, the AC50 under setting [1] was 0.58 µM [rising, single point].

On to `C/C(=N\NC(=O)c1cc(-c2ccc(C)s2)[nH]n1)c1ccco1`, for which the cell number change is -65.2%. For the same molecule, the AC50 under setting [2] was 10.3 µM [falling, single point]. For the same molecule, under setting [1], the half-maximal activity concentration (AC50) is 7.31 µM [rising, partial curve].

With `CCOc1ccc(S(=O)(=O)N(CC)CC)cc1N`, the cell number change was 54.5%.

As for `CCCN(C(=O)COC(=O)CCOc1ccc(C)cc1)c1c(N)n(Cc2ccccc2)c(=O)[nH]c1=O`, the cell number change is -38.1%. For the same molecule, under setting [2], the concentration at half-maximal activity (AC50) was 29.1 µM [falling, single point]. Further, the AC50 under setting [1] is 29.1 µM [falling, single point].

As to `CC(NC(=O)c1ccc(=O)oc1)c1ccccc1` (stereo not drawn), the cell number change was found to be 15.9%. Besides, the AC50 under setting [1] was 0.231 µM [falling, full curve, poor fit].
